Source: PubChem BioAssay AID1259289 (Sanger Institute, 2017)
Aim: 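Find kinases whose loss adds to targeted drugs in killing bowel cancer cells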 (primary screen). Cell system: human LS513 colorectal cancer cells. Knock-down reagent: siRNA pool against human genes. Challenge: anchor drug BYL719 at 1 µM, cetuximab at 5 µg/ml or trametinib at 10 nM, or DMSO vehicle alone; exposure time not given. Measured: 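Cell survival as a fraction of the non-targeting pool, replicate means; robust z-score for silencing alone under DMSO; synergy score for each of BYL719, cetuximab and trametinib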. Reading the numbers: robust z-score, siRNA alone (DMSO): higher = more viable cells; strongly negative means essential; viability with DMSO vs control: higher = more viable cells. Active means: 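a gene counts as active if its DMSO-only robust z-score falls under -3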. Calls: active = essential (knock-down alone); inactive = not essential.
The deposit covers 794 reagents; shown is a random part of them. 16 of all reagents (2%) count as active. 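Active marks cell loss from silencing alone; drug synergy shows only in the synergy scores, not the calls.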 Unmarked entries are inactive. Viability is capped at 1. Further read-outs or replicates are left out here. No sequences are given here. The record does not give: the amount of reagent, the time to read-out.

no.	Target gene	robust z-score, siRNA alone (DMSO)	viability with DMSO vs control (fraction of control)
1	PACSIN1	0.561	1
2	INSR	0.387	0.975
3	RPS6KB2	0.561	1
4	AK3	0.561	1
5	MAP3K10	0.561	1
6	ATR	-1.27	0.741
7	STK25	0.561	1
8	NRK	0.561	1
9	KIT	0.561	1
10	RIOK1	-1.57	0.698
11	MERTK	0.521	0.994
12	NTRK1	-2.06	0.628
13	NME1	0.561	1
14	AAK1	-0.344	0.872
15	MAP3K21	0.561	1
16	PRKAA2	-0.653	0.828
17	EEF2K	0.561	1
18	CDK8	0.561	1
19	RPS6KL1	0.561	1
20	KHK	-0.389	0.865

2 entries from above in another layout:
Target gene,"robust z-score, siRNA alone (DMSO)",viability with DMSO vs control (fraction of control)
ATR,-1.27,0.741
STK25,0.561,1
